Laboratory results taken from article PMC3636440.
These are yes or no findings as the source states them, for the method shown. Binding can be weak; no strength is given.

The chains behind the UniProt entries cited, without tags or fusion partners. Residues count along the entry.
UniProt Q6PDQ2, residues 1658-1915: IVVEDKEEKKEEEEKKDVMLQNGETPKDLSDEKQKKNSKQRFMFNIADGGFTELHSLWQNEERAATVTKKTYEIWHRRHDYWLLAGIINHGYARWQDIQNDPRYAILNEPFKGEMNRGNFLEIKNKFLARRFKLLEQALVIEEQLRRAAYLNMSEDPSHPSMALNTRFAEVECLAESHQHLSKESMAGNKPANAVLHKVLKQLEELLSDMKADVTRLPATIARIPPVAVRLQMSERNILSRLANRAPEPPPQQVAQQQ

What was measured:
[1] = molecular target: GAL4-BD fusion of the N-terminal region of Zinc finger protein 819 (Zfp819_N) (mouse) (UniProt F7A2T8); test: two-hybrid; GAL4-based library screen: mouse ESC cDNA library (pGADT7-Rec, AH109) mated with Y187 carrying pGBKT7-Zfp819_N; selection on SD/-Leu/-Trp/-His/-Ade and X-alpha-Gal; auto-activating clones excluded by direct-Y2H
[2] = molecular target: GAL4-BD fusion of the N-terminal region of Zinc finger protein 819 (Zfp819_N) (mouse) (UniProt F7A2T8); test: two-hybrid; direct-Y2H: purified prey clone co-transformed with bait construct or empty pGBKT7 into AH109; SD/-Leu/-Trp, then SD/-Leu/-Trp/-His/-Ade and X-alpha-Gal plates

binding [1]: binds
binding [2]: binds
Substance: Chromodomain helicase DNA-binding protein 4 (Chd4), C-terminal region prey clone (from UniProt Q6PDQ2 1658-1915) (domain or fragment)
